From doi:10.1101/2022.10.09.511391 come the findings set out here.

In the experiment the target is T1, Myc-APEX2-TRB3 (UniProt Q8K4K2).
T1 sequence: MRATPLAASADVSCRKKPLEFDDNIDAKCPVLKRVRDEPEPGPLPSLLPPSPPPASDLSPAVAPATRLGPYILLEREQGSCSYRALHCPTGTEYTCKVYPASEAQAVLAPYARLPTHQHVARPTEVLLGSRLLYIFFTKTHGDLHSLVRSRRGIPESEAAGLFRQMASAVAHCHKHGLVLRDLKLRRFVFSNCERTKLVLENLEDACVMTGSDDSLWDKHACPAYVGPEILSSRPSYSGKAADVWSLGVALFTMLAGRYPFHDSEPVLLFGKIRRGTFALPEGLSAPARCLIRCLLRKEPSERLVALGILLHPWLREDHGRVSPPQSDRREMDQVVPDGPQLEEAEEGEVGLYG
Briefly: proximity labelling.

No constants are given. Whether binding was seen depends on the method and setting. Binding seen in cells or lysates may run through a third protein. These calls come from enrichment with a bait or labelling near it, and not all partners need be listed. Where a sequence is shown, tags or fusion partners need not be part of it.

B1: Flightless-homolog 1 (Fli1), endogenous in Min6 cells (protein, UniProt Q9JJ28 1-1271)
chain: MEATGVLPFVRGVDLSGNDFKGGYFPENVKAMTSLRWLKLNRTGLCYLPEELAALQKLEHLSVSHNHLTTLHGELSSLPSLRAIVARANSLKNSGVPDDIFKLDDLSVLDLSHNQLTECPRELENAKNMLVLNLSHNGIDSIPNQLFINLTDLLYLDLSENRLESLPPQMRRLVHLQTLVLNGNPLLHAQLRQLPAMMALQTLHLRNTQRTQSNLPTSLEGLSNLSDVDLSCNDLTRVPECLYTLPSLRRLNLSSNQIAELSLCIDQWVHLETLNLSRNQLTSLPSAICKLTKLKKLYLNSNKLDFDGLPSGIGKLTSLEEFMAANNNLELIPESLCRCPKLKKLVLNKNRLVTLPEAIHFLTEIQVLDVRENPSLVMPPKPADRTAEWYNIDFSLQNQLRLAGASPATVAAAAAVGSGSKDPLARKMRLRRRKDSAQDVQAKQVLKGMSDVAQEKNKNQEESIDARAPGGKVRRWDQGLEKPRLDYSEFFTEDVGQLPGLTIWQIENFVPVLVEEAFHGKFYEADCYIVLKTFLDDSGSLNWEIYYWIGGEATLDKKACSAIHAVNLRNYLGAECRTVREEMGDESEEFLQVFDNDISYIEGGTASGFYTVEDTHYVTRMYRVYGKKNIKLEPVPLKGSSLDPRFVFLLDQGLDIYVWRGAQATLSNTTKARLFAEKINKNERKGKAEITLLVQGQEPPGFWDVLGGEPSEIKNHVPDDFWPPQPKLYKVGLGLGYLELPQINYKLSVEHKKRPKVELMPGMRLLQSLLDTRCVYILDCWSDVFIWLGRKSPRLVRAAALKLGQELCGMLHRPRHTVVSRSLEGTEAQVFKAKFKNWDDVLTVDYTRNAEAVLQGQGLSGKVKRDTEKTDQMKADLTALFLPRQPPMPLAEAEQLMEEWNEDLDGMEGFVLEGRKFTRLPEEEFGHFYTQDCYVFLCRYWVPVEYEEEEKTEDKEGKASAEAREGEEAAAEAEEKQPEEDFQCIVYFWQGREASNMGWLTFTFSLQKKFESLFPGKLEVVRMTQQQENPKFLSHFKRKFIIHRGKRKVTQGTLQPTLYQIRTNGSALCTRCIQINTDSSLLNSEFCFILKVPFESEDNQGIVYAWVGRASDPDEAKLAEDILNTMFDASYSKQVINEGEEPENFFWVGIGAQKPYDDDAEYMKHTRLFRCSNEKGYFAVTEKCSDFCQDDLADDDIMLLDNGQEVYMWVGTQTSQVEIKLSLKACQVYIQHTRSKEHERPRRLRLVRKGNEQRAFTRCFHAWSTFRQAPA
As to B1, the binding result is “binds”.
